Test results from patent US20230093073A1, “METHODS AND COMPOSITIONS FOR COMMUNITY-BASED SCREENING OF POLYMICROBIAL INFECTIONS” (REGENTS OF THE UNIVERSITY OF MINNESOTA, priority 2020, published 2023).
At least one structure is not confirmed: it was looked up by name or label, or the drawing left a doubt.

Tests used:
P. aeruginosa = test: Antibiotic susceptibility testing (MIC) of P. aeruginosa isolates from CF sputum in LB; type: cell-based, Pseudomonas aeruginosa; conditions: isolates from adult CF sputum, nutrient-rich LB, aerobic, 37° C., 24 h
Experimental: (§1) To further test this idea under clinically relevant conditions, sputum was collected from adult CF patients and isolated P. aeruginosa from each sample (FIG. 1B). Using a panel of widely used CF antibiotics (tobramycin, aztreonam, levofloxacin, piperacillin-tazobactam) and others lacking conventional activity against P. aeruginosa (trimethoprim-sulfamethoxazole, metronidazole), MICs for each isolate were determined under nutrient-rich conditions (akin to standard AST procedures). Concurrently, enrichment culturing was performed to isolate anaerobic mucin-degrading bacteria from each sample (10) and antibiotic MICs were similarly determined. Finally, small aliquots of remaining sputa were diluted in buffer and split between culture tubes containing mucin as the sole carbon source, 1% agarose, and one of the antibiotics listed above. Using these cultures in which P. aeruginosa and anaerobic mucin-degraders were co-dependent on mucin utilization, how co-operative growth affected antibiotic sensitivity relative to independent culture was interrogated.
Pseudomonas aeruginosa isolation. […]
(§2) Antibiotic susceptibility testing. […] Plates were resuspended by pipetting and read spectrophotometrically at OD600 using a BioTek Synergy plate reader. MICs were determined based on the antibiotic concentration required to achieve a 90% reduction in culture density relative to antibiotic-free controls.

[1] = test system: sputum bacterial communities; test: Mucin co-culture of CF sputum bacterial communities, community growth by 16S rRNA gene qPCR; type: cell-based; conditions: sputum co-culture vs individual MICs of P. aeruginosa and anaerobes
Experimental: To further test this idea under clinically relevant conditions, sputum was collected from adult CF patients and isolated P. aeruginosa from each sample (FIG. 1B). Using a panel of widely used CF antibiotics (tobramycin, aztreonam, levofloxacin, piperacillin-tazobactam) and others lacking conventional activity against P. aeruginosa (trimethoprim-sulfamethoxazole, metronidazole), MICs for each isolate were determined under nutrient-rich conditions (akin to standard AST procedures). Concurrently, enrichment culturing was performed to isolate anaerobic mucin-degrading bacteria from each sample (10) and antibiotic MICs were similarly determined. […]
It was assessed whether co-operative community growth (see FIG. 1A) would affect antibiotic susceptibility. […] To test this hypothesis, total 16S rRNA gene copy number was used to quantify community growth in response to each antibiotic relative to untreated controls (FIG. 2C).
Co-culture. Under anaerobic conditions, 200 μL of homogenized sputum was placed into one of eight tubes to which a pre-determined concentration of each antibiotic was added (aztreonam, 100 μg/mL; doxycycline, 6.5 μg/mL; levofloxacin, 6.5 μg/mL; metronidazole, 3.5 μg/mL; piperacillin/tazobactam, 6.5 μg/mL; tobramycin, 500 μg/mL; trimethoprim/sulfamethoxazole, 3.5 μg/mL). […]
qPCR. Community growth was estimated by quantifying 16S rRNA gene copies from co-culture DNA.

[2] = test system: anaerobic mucin-degrading bacteria; test: Anaerobic antibiotic susceptibility testing (MIC) of enrichment cultures from CF sputum in minimal mucin medium; type: cell-based; conditions: MMM, 37° C., 72 h
Experimental: as §1
Anaerobic enrichment. […]
as §2

Compound: C[C@H]1COc2c(N3CCN(C)CC3)c(F)cc3c(=O)c(C(=O)O)cn1c23 [levofloxacin]
- efficacy against P. aeruginosa isolates (MICs, FIG. 2A) (P. aeruginosa): broadly effective
- whether presence of at least one antibiotic-susceptible population predicts community failure in co-culture [1]: largely predictive of community failure
- efficacy against anaerobic enrichments (MICs, FIG. 2B) [2]: variable efficacy
